Assay results reported in publication PMC5513350.

By UniProt entry, the sequences of proteins in these tests, tags left out.
UniProt Q13148: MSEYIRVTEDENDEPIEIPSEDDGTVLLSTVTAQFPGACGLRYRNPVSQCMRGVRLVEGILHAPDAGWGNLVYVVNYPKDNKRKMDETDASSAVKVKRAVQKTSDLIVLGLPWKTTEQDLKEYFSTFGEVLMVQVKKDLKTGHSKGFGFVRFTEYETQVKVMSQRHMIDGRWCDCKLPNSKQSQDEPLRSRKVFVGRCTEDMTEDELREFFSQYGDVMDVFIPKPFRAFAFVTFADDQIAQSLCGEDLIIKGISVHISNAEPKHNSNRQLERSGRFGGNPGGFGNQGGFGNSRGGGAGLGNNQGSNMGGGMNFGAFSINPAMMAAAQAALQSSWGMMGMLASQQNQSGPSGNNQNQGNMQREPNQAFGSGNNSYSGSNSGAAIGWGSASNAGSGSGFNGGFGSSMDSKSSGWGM

T1: MYEF2 fused to BirA*-FLAG (human) (UniProt Q9P2K5)
T1 sequence: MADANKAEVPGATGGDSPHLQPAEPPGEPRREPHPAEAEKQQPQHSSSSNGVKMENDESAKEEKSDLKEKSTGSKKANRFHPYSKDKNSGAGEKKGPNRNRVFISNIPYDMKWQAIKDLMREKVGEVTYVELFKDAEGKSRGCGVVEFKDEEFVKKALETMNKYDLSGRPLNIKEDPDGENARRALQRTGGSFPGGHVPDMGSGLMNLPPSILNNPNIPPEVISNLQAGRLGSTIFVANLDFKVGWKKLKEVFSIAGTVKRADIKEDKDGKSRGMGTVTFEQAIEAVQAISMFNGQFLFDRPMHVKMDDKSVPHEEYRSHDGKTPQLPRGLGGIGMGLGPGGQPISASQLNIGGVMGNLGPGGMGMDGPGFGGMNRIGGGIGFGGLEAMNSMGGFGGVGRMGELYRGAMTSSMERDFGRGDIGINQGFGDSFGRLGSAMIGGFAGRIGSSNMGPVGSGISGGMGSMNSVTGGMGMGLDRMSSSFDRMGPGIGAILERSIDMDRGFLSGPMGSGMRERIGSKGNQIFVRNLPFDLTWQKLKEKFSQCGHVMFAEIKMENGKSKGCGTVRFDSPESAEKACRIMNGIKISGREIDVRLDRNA

T2: HNRNPM fused to BirA*-FLAG (human) (UniProt P52272)
T2 sequence: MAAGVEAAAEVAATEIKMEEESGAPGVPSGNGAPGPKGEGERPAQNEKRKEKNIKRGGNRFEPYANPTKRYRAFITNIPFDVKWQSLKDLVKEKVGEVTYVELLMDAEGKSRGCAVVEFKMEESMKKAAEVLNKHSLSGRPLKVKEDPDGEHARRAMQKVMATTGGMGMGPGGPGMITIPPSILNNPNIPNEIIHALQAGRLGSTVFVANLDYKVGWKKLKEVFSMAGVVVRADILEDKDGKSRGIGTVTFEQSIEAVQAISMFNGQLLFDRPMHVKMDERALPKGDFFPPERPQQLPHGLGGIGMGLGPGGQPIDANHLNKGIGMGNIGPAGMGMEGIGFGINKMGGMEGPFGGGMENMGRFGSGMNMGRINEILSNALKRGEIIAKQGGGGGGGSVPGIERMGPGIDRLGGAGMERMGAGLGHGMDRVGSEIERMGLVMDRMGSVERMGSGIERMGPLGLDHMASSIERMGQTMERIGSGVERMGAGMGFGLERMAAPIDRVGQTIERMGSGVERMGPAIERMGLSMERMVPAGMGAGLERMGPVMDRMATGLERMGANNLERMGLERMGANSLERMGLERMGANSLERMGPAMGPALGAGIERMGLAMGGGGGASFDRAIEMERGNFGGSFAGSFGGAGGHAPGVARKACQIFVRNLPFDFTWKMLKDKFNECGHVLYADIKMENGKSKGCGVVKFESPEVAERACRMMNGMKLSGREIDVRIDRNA

B1: DGCR8 (protein, UniProt Q8WYQ5 1-773)
chain: METDESPSPLPCGPAGEAVMESRARPFQALPREQSPPPPLQTSSGAEVMDVGSGGDGQSELPAEDPFNFYGASLLSKGSFSKGRLLIDPNCSGHSPRTARHAPAVRKFSPDLKLLKDVKISVSFTESCRSKDRKVLYTGAERDVRAECGLLLSPVSGDVHACPFGGSVGDGVGIGGESADKKDEENELDQEKRVEYAVLDELEDFTDNLELDEEGAGGFTAKAIVQRDRVDEEALNFPYEDDFDNDVDALLEEGLCAPKKRRTEEKYGGDSDHPSDGETSVQPMMTKIKTVLKSRGRPPTEPLPDGWIMTFHNSGVPVYLHRESRVVTWSRPYFLGTGSIRKHDPPLSSIPCLHYKKMKDNEEREQSSDLTPSGDVSPVKPLSRSAELEFPLDEPDSMGADPGPPDEKDPLGAEAAPGALGQVKAKVEVCKDESVDLEEFRSYLEKRFDFEQVTVKKFRTWAERRQFNREMKRKQAESERPILPANQKLITLSVQDAPTKKEFVINPNGKSEVCILHEYMQRVLKVRPVYNFFECENPSEPFGASVTIDGVTYGSGTASSKKLAKNKAARATLEILIPDFVKQTSEEKPKDSEELEYFNHISIEDSRVYELTSKAGLLSPYQILHECLKRNHGMGDTSIKFEVVPGKNQKSEYVMACGKHTVRGWCKNKRVGKQLASQKILQLLHPHVKNWGSLLRMYGRESSKMVKQETSDKSVIELQQYAKKNKPNLHILSKLQEEMKRLAEEREETRKKPKMSIVASAQPGGEPLCTVDV
B2: DROSHA (protein, UniProt Q9NRR4 1-1374)
chain: MMQGNTCHRMSFHPGRGCPRGRGGHGARPSAPSFRPQNLRLLHPQQPPVQYQYEPPSAPSTTFSNSPAPNFLPPRPDFVPFPPPMPPSAQGPLPPCPIRPPFPNHQMRHPFPVPPCFPPMPPPMPCPNNPPVPGAPPGQGTFPFMMPPPSMPHPPPPPVMPQQVNYQYPPGYSHHNFPPPSFNSFQNNPSSFLPSANNSSSPHFRHLPPYPLPKAPSERRSPERLKHYDDHRHRDHSHGRGERHRSLDRRERGRSPDRRRQDSRYRSDYDRGRTPSRHRSYERSRERERERHRHRDNRRSPSLERSYKKEYKRSGRSYGLSVVPEPAGCTPELPGEIIKNTDSWAPPLEIVNHRSPSREKKRARWEEEKDRWSDNQSSGKDKNYTSIKEKEPEETMPDKNEEEEEELLKPVWIRCTHSENYYSSDPMDQVGDSTVVGTSRLRDLYDKFEEELGSRQEKAKAARPPWEPPKTKLDEDLESSSESECESDEDSTCSSSSDSEVFDVIAEIKRKKAHPDRLHDELWYNDPGQMNDGPLCKCSAKARRTGIRHSIYPGEEAIKPCRPMTNNAGRLFHYRITVSPPTNFLTDRPTVIEYDDHEYIFEGFSMFAHAPLTNIPLCKVIRFNIDYTIHFIEEMMPENFCVKGLELFSLFLFRDILELYDWNLKGPLFEDSPPCCPRFHFMPRFVRFLPDGGKEVLSMHQILLYLLRCSKALVPEEEIANMLQWEELEWQKYAEECKGMIVTNPGTKPSSVRIDQLDREQFNPDVITFPIIVHFGIRPAQLSYAGDPQYQKLWKSYVKLRHLLANSPKVKQTDKQKLAQREEALQKIRQKNTMRREVTVELSSQGFWKTGIRSDVCQHAMMLPVLTHHIRYHQCLMHLDKLIGYTFQDRCLLQLAMTHPSHHLNFGMNPDHARNSLSNCGIRQPKYGDRKVHHMHMRKKGINTLINIMSRLGQDDPTPSRINHNERLEFLGDAVVEFLTSVHLYYLFPSLEEGGLATYRTAIVQNQHLAMLAKKLELDRFMLYAHGPDLCRESDLRHAMANCFEALIGAVYLEGSLEEAKQLFGRLLFNDPDLREVWLNYPLHPLQLQEPNTDRQLIETSPVLQKLTEFEEAIGVIFTHVRLLARAFTLRTVGFNHLTLGHNQRMEFLGDSIMQLVATEYLFIHFPDHHEGHLTLLRSSLVNNRTQAKVAEELGMQEYAITNDKTKRPVALRTKTLADLLESFIAALYIDKDLEYVHTFMNVCFFPRLKEFILNQDWNDPKSQLQQCCLTLRTEGKEPDIPLYKTLQTVGPSHARTYTVAVYFKGERIGCGKGPSIQQAEMGAAMDALEKYNFPQMAHQKRFIERKYRQELKEMRWEREHQEREPDETEDIKK

Tests used:
Assay in all cases: proximity labelling; BioID-MS: bait fused to FLAG-BirA* stably expressed in Flp-In T-REx 293 cells, 1 ug/mL tetracycline, 50 uM biotin; lysis in modified RIPA buffer, streptavidin-sepharose, trypsin, mass spectrometry; two biological replicates alongside negative controls
[1] = target: T1, MYEF2 fused to BirA*-FLAG (human)
[2] = target: T2, HNRNPM fused to BirA*-FLAG (human)
[3] = target: T1, MYEF2 fused to BirA*-FLAG (human); remark: listed apart in the source
[4] = target: T2, HNRNPM fused to BirA*-FLAG (human); remark: listed apart in the source

| Molecule | binding [1] | binding [2] | binding [3] | binding [4] |
| --- | --- | --- | --- | --- |
| TARDBP/TDP43 (from UniProt Q13148 1-414) | binds | binds | – | – |
| B1 | – | – | binds | – |
| B2 | – | – | binds | no binding |

Read-outs that look alike come from different tables or passages of the source. Results are given in words; binding and its absence hold for the method and conditions named. Binding seen in cells or lysates may run through a third protein. A yes stands for co-enrichment or nearness to the bait. Other partners may have been found. For some assays here: A no says only that the protein was not detected with the bait. Where a sequence is shown, tags or fusion partners need not be part of it.
